From PMC12188314 come the findings set out here.

Test [1] deals with T1, T7-tagged RBD27-WT (mouse) (UniProt Q99N50).
T1 sequence: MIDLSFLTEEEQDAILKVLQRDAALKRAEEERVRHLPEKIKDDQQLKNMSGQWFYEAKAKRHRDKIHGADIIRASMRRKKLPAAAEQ
Kind of test: co-IP; lysates of COS-7 cells with T7–RBD27 (WT or mutant) or FLAG–Rab27A incubated 1 h at 4°C with anti-T7 tag antibody-conjugated agarose beads; lysis buffer 50 mM HEPES-KOH pH 7.2, 250 mM NaCl, 1 mM MgCl2, 1% Triton X-100, 0.5 mM GTPγS; immunoblotting.

Test [2] deals with T2, T7–GST–RBD27 (mouse) (UniProt Q99N50).
T2 sequence: T1 sequence
Kind of test: pull-down; anti-T7 tag antibody-conjugated agarose beads coupled with T7–GST–RBD27 incubated 1 h at 4°C with 10 μg purified GST–Rab27A in 50 mM HEPES-KOH pH 7.2, 150 mM NaCl, 1 mM MgCl2, 0.5 mM GTPγS, 0.1% Triton X-100; CBB staining; both purified.

These are yes or no findings as the source states them, for the method shown. For some assays here: In cells and extracts the contact can be indirect. Some entries that bind do so weakly or less than the wild type. Where a sequence is shown, tags or fusion partners need not be part of it.

B1: FLAG-tagged Rab27A (protein, UniProt Q9ERI2 1-221)
chain: MSDGDYDYLIKFLALGDSGVGKTSVLYQYTDGKFNSKFITTVGIDFREKRVVYRANGPDGAVGRGQRIHLQLWDTAGQERFRSLTTAFFRDAMGFLLLFDLTNEQSFLNVRNWISQLQMHAYCENPDIVLCGNKSDLEDQRAVKEEEARELAEKYGIPYFETSAANGTNISHAIEMLLDLIMKRMERCVDKSWIPEGVVRSNGHTSADQLSEEKEKGLCGC
For B1, the binding result in test [1] is listed as “binds”.

B2: GST–Rab27A (protein, UniProt Q9ERI2 1-221)
chain: B1 chain
With B2, the binding result in test [2] was “binds”.
